By UniProt entry, the sequences of proteins in these tests, tags left out. Where a name states a change or a piece, a line headed by the entry shows the natural chain unless it says otherwise.
UniProt Q8WU90: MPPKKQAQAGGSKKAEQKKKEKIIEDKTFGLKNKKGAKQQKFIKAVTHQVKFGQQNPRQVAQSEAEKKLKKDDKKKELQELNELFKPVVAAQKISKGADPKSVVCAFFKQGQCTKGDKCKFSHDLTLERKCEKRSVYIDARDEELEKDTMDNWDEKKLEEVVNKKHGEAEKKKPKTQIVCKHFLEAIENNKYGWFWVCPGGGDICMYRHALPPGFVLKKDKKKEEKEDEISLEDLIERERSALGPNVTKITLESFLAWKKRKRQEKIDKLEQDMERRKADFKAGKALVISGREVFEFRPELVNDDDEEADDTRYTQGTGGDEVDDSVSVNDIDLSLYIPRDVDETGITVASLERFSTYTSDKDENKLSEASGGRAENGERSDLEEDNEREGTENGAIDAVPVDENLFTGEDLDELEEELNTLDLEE
UniProt Q92560: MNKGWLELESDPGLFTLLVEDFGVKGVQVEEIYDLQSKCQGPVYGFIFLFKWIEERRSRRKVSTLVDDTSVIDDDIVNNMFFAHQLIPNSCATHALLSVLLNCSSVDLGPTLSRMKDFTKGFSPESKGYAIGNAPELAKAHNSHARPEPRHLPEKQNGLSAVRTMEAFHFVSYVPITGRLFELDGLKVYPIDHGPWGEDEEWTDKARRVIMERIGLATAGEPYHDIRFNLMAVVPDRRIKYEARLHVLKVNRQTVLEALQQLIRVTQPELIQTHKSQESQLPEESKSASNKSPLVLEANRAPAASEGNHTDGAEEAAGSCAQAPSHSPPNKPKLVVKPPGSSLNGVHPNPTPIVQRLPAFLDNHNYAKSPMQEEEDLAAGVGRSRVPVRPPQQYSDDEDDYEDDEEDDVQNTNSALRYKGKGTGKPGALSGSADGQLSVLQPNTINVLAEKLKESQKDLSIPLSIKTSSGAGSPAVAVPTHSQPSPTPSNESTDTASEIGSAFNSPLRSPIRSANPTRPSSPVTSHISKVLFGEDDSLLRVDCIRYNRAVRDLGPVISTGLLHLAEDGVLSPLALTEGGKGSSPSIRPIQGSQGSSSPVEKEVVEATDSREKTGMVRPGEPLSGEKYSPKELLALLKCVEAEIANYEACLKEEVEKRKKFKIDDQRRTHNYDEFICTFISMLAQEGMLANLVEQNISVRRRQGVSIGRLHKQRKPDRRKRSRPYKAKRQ
UniProt Q8WXW3: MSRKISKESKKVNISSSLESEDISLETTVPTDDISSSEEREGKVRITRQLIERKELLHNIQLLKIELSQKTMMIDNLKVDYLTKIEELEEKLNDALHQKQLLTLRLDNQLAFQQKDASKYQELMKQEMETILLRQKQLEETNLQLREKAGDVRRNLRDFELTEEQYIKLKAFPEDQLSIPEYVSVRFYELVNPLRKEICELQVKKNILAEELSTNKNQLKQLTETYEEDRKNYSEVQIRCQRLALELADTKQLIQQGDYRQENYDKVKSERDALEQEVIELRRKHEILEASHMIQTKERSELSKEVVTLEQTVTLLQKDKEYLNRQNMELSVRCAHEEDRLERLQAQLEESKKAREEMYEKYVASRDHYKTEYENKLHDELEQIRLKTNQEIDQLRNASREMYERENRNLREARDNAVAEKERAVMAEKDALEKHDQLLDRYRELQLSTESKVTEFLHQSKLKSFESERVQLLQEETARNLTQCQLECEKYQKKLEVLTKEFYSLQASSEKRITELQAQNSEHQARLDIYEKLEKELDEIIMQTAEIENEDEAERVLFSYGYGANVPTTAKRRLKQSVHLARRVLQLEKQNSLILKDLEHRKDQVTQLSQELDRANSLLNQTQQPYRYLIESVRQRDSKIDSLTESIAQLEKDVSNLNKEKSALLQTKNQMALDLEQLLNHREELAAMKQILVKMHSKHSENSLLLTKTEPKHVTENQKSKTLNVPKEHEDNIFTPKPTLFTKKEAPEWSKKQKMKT
UniProt Q8NEN9: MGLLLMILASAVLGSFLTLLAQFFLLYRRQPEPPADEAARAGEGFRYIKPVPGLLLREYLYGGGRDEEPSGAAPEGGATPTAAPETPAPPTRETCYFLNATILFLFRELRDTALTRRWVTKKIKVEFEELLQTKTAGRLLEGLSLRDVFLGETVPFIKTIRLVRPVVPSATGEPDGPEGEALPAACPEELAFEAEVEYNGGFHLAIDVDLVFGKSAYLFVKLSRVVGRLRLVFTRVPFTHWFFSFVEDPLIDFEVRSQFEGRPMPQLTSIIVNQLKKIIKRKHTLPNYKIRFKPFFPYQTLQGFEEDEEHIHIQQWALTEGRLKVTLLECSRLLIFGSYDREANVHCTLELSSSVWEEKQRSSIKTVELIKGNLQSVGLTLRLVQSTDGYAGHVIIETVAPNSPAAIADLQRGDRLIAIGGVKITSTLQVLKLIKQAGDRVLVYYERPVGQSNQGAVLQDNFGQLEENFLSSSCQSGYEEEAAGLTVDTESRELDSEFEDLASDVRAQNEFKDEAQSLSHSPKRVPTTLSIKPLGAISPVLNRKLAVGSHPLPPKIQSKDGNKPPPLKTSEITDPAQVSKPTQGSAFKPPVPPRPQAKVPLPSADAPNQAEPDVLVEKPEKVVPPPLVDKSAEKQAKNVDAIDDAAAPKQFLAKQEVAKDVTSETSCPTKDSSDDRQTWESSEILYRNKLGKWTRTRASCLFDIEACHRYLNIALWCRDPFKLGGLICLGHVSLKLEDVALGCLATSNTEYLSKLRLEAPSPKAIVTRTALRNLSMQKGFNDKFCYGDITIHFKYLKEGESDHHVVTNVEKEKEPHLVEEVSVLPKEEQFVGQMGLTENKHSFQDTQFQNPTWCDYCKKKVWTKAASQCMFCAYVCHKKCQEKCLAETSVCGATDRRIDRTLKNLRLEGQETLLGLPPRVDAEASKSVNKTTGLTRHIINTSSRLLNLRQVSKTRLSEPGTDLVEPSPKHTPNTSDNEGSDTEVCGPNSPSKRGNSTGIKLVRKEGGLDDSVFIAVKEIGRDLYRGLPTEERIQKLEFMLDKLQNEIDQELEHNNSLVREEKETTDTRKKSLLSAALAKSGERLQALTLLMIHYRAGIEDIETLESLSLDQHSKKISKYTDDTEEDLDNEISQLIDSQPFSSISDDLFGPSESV
UniProt Q8TEQ0: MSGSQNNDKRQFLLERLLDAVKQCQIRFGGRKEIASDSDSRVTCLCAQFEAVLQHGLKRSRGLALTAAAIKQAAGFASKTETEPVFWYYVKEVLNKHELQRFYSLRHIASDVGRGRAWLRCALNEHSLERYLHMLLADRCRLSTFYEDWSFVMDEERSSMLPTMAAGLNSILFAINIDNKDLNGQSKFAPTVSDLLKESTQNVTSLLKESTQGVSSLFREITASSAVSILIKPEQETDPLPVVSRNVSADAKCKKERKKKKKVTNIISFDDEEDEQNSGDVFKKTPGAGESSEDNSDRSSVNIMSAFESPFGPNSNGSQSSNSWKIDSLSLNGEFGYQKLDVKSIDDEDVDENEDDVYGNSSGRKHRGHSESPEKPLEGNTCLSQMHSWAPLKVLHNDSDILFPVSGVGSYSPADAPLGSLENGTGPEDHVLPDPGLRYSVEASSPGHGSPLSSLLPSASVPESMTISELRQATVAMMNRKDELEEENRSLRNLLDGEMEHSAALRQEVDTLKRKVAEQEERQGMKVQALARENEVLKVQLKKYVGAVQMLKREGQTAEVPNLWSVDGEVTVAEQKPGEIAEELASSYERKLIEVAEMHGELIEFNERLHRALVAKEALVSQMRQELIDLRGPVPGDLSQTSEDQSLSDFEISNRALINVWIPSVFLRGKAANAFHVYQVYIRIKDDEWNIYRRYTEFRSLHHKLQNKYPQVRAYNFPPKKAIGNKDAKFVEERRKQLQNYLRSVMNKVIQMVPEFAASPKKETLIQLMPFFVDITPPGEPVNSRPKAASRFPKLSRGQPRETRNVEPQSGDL
UniProt Q8TF05: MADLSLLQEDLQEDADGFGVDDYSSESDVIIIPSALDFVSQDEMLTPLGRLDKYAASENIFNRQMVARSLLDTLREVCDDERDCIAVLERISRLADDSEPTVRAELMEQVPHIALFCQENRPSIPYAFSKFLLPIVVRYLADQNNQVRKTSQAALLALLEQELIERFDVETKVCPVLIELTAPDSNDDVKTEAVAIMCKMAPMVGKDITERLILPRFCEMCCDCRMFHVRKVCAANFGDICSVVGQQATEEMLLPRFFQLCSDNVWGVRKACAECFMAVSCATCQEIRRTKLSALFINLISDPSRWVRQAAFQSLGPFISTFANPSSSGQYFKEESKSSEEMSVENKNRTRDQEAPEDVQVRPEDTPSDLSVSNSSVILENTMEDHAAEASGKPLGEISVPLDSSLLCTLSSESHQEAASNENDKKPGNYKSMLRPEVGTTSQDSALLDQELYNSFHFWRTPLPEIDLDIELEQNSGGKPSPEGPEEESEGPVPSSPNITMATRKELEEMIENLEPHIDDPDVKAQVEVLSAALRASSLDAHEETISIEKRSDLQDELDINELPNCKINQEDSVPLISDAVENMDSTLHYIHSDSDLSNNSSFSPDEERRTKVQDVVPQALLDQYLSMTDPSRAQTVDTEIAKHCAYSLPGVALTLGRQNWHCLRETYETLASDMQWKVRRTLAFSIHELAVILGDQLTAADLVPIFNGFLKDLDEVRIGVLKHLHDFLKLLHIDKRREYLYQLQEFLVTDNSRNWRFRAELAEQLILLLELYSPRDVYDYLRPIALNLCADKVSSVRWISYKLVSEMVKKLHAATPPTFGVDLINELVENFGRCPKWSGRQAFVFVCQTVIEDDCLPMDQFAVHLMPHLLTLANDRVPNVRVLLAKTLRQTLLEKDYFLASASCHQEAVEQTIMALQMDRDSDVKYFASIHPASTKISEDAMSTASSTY
UniProt Q92520: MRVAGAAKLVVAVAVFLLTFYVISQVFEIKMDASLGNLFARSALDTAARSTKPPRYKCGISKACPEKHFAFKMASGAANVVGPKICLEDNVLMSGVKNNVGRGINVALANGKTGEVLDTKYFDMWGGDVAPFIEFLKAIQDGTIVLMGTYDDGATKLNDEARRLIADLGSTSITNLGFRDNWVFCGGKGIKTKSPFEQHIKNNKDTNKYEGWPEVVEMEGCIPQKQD
UniProt Q8NCN4: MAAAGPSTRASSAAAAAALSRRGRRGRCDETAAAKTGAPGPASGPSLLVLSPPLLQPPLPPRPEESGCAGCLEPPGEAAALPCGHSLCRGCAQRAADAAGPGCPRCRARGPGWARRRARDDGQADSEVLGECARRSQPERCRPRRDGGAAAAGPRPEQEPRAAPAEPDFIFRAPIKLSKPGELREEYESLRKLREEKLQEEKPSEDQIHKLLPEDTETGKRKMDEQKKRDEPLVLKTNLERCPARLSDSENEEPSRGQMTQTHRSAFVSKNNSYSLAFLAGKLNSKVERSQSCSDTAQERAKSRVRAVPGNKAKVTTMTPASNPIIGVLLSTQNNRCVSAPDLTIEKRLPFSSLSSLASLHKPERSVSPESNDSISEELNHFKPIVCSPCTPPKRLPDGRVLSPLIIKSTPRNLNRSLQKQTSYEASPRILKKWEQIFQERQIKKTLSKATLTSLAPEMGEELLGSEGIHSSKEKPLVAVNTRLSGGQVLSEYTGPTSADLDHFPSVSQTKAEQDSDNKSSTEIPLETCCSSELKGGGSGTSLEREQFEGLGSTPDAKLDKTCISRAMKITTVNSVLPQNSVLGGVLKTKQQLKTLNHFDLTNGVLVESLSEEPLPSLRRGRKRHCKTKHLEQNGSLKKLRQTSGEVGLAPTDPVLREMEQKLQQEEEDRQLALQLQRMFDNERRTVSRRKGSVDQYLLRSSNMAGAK
UniProt Q92918, whole entry, looked up: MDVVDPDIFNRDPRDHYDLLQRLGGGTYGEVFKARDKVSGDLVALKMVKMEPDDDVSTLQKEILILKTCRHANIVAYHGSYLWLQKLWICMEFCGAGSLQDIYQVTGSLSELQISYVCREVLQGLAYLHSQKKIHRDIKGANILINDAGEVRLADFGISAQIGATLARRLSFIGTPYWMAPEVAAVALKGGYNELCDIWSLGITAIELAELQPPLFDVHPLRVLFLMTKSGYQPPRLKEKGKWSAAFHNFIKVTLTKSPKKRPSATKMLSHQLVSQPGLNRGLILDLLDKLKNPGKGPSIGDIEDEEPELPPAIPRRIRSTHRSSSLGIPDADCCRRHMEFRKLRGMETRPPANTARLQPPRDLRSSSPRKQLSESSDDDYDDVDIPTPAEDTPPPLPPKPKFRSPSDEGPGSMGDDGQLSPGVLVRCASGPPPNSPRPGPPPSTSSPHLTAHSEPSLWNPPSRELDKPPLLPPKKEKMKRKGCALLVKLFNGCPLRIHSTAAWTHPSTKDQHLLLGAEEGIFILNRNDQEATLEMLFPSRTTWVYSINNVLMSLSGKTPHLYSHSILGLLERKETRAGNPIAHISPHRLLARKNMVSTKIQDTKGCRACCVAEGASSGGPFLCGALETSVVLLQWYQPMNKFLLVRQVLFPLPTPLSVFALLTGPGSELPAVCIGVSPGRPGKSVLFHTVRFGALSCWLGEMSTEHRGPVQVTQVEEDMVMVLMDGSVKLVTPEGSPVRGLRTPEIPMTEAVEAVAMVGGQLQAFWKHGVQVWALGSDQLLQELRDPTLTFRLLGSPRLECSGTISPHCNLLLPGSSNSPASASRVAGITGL

± gives the standard deviation of the averaged measurements. Only a part is listed here, and it is no random draw. Most entries show no effect beyond the scatter of the controls.
What follows are targets tested with Nc1ncnc2c1ncn2[C@@H]1O[C@H](COP(=O)(O)OP(=O)(O)NP(=O)(O)O)[C@@H](O)[C@H]1O [adenylyl imidodiphosphate] (assay: NP40-soluble protein abundance relative to vehicle (solubility fold change) (ratio); higher = more soluble protein in presence of AMP-PNP). Conditions: concentration: 0.5mM.
Procedure, shortened: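 Values are fold changes against the detergent-processed vehicle, based on vsn-normalised intensities. Jurkat crude lysate was treated at eight concentrations from 0.1 to 10 mM (10 min at room temperature, then 3 min at 37 °C), solubilised with 0.8% NP40 and benzonase, ultracentrifuged and analysed by TMT-labelled LC-MS/MS over three independent experiments.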
For NUP210 (UniProt Q8TEM1), the NP40-soluble protein abundance was 1 ± 0.042. Work on GTF3C2 (UniProt Q8WUA4) yielded an NP40-soluble protein abundance of 0.953 ± 0.024. With UniProt Q8WVK7 the NP40-soluble protein abundance was 1.02 ± 0.076. ZC3H15 (UniProt Q8WU90) showed an NP40-soluble protein abundance of 1.01 ± 0.044. Work on BAP1 (UniProt Q92560) yielded an NP40-soluble protein abundance of 1.02 ± 0.023. In the case of UniProt Q8NCE2-2, the NP40-soluble protein abundance is reported as 1.05 ± 0.015. In the case of UniProt Q8NG08 and related entries, the NP40-soluble protein abundance is reported as 1.01 ± 0.035. With PIBF1 (UniProt Q8WXW3) the NP40-soluble protein abundance was 0.984 ± 0.061. Work on GPT2 (UniProt Q8TD30) yielded an NP40-soluble protein abundance of 0.9683 ± 0.007. UniProt Q92614 and related entries gave an NP40-soluble protein abundance of 1.01 ± 0.038. UniProt Q92734 and related entries gave an NP40-soluble protein abundance of 1 ± 0.053. UniProt Q8NHH9 and related entries was tested, and the NP40-soluble protein abundance was 1 ± 0.018. PDZD8 (UniProt Q8NEN9) showed an NP40-soluble protein abundance of 0.996 ± 0.07. In the case of UniProt Q8TCB7 and related entries, the NP40-soluble protein abundance is reported as 1.006 ± 0.0084. Work on UniProt Q92572 yielded an NP40-soluble protein abundance of 0.97 ± 0.023. CXorf38 (UniProt Q8TB03) was tested, and the NP40-soluble protein abundance was 0.984 ± 0.024. In the case of SNIP1 (UniProt Q8TAD8), the NP40-soluble protein abundance is reported as 0.995 ± 0.024. Target SEMA4D (UniProt Q92854) has an NP40-soluble protein abundance of 1 ± 0.053. For CORO2A (UniProt Q92828), the NP40-soluble protein abundance was 0.992 ± 0.061. For GSTCD (UniProt Q8NEC7), the NP40-soluble protein abundance was 1 ± 0.039. Target UniProt Q8TCY9 has an NP40-soluble protein abundance of 0.999 ± 0.018. For UniProt Q8WWY3 and related entries, the NP40-soluble protein abundance was 0.9912 ± 0.0045. Work on UniProt Q8WY54 and related entries yielded an NP40-soluble protein abundance of 1.02 ± 0.022. UniProt Q8TEQ0 and related entries was tested, and the NP40-soluble protein abundance was 0.973 ± 0.018. For UniProt Q8TF05 and related entries, the NP40-soluble protein abundance was 0.922 ± 0.076. For UniProt Q8NC60, the NP40-soluble protein abundance was 0.985 ± 0.052. In the case of TRUB1 (UniProt Q8WWH5), the NP40-soluble protein abundance is reported as 1.06 ± 0.046. For SYMPK (UniProt Q92797), the NP40-soluble protein abundance was 0.998 ± 0.017. UniProt Q8TBA6 and related entries was tested, and the NP40-soluble protein abundance was 1 ± 0.046. Work on ENGASE (UniProt Q8NFI3) yielded an NP40-soluble protein abundance of 0.977 ± 0.064. C18orf32 (UniProt Q8TCD1) showed an NP40-soluble protein abundance of 0.973 ± 0.01. With FAM3C (UniProt Q92520) the NP40-soluble protein abundance was 0.9851 ± 0.0094. Work on RNF169 (UniProt Q8NCN4) yielded an NP40-soluble protein abundance of 0.989 ± 0.052. UniProt Q92918-2|K7ER95 gave an NP40-soluble protein abundance of 1 ± 0.051. TFB1M (UniProt Q8WVM0) showed an NP40-soluble protein abundance of 0.986 ± 0.074. UniProt Q8TB72-3 showed an NP40-soluble protein abundance of 1 ± 0.075. UniProt Q92834 and related entries gave an NP40-soluble protein abundance of 0.9824 ± 0.0049. In the case of UniProt Q8NBZ7 and related entries, the NP40-soluble protein abundance is reported as 0.9576 ± 0.0035.

Source: the supplement of paper PMC6411743
